Reference: ChEMBL document CHEMBL4118274, “Synthesis and biological evaluation of pyridine-linked indanone derivatives: Potential agents for inflammatory bowel disease” (Bioorg Med Chem Lett, 2018)
Active and inactive are the calls of the source. The rule behind the calls is not given here.

Sequences of proteins named here, by UniProt entry; tags and fusion partners are left off.
UniProt P01375, whole entry: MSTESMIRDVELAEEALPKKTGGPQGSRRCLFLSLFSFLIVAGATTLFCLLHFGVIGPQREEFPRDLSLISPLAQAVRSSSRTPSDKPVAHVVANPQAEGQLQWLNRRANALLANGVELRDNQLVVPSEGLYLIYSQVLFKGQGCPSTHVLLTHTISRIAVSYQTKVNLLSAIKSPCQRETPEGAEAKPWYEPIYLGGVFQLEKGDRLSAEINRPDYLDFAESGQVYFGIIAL

Experiments:
[1] = target: Tumor necrosis factor (Homo sapiens) (UniProt P01375); experiment: Inhibition of TNFalpha (unknown origin)-induced adhesion of BCECF fluorescence-labeled human U937 cells to human HT-29 cells at 10 uM measured at 3 hrs post TNFalpha stimulation relative to control
[2] = target: Tumor necrosis factor (Homo sapiens) (UniProt P01375); experiment: Inhibition of TNFalpha (unknown origin)-induced ICAM-1 expression in human HT-29 cells at 10 uM preincubated with cells for 1 hr followed by TNFalpha induction of 3 hrs by Western blot analysis; type: cell-based
[3] = target: Tumor necrosis factor (Homo sapiens) (UniProt P01375); experiment: Inhibition of TNFalpha (unknown origin)-induced MCP-1 expression in human HT-29 cells at 10 uM preincubated with cells for 1 hr followed by TNFalpha induction of 3 hrs by Western blot analysis; type: cell-based
[4] = target: Tumor necrosis factor (Homo sapiens) (UniProt P01375); experiment: Inhibition of TNFalpha (unknown origin)-induced NFkappaB transcriptional activity in human HT-29 cells at 10 uM pretreated with cells for 1 hr followed by TNFalpha induction for 3 hrs by dual luciferase reporter gene assay; type: cell-based

O=C1/C(=C/c2ccncc2)Cc2ccccc21
inhibition [1]: 74.1% | inhibition [2]: Active | inhibition [3]: Active | inhibition [4]: Active
